The assay relates to MCF7 (breast) cells. The experiment in a line: Cytotoxic activity, Cell Titer 96 proliferation kit. In kind it is cell-based. Conditions: Homo sapiens, MCF7, read-out: IC50, MCF7. An outline of the steps: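 Cells grown in DMEM with 10% fetal bovine serum and 2 mM glutamine at 37 °C under 5% CO2. Test compounds at 100, 10, 1, 0.1 and 0.01 μg/mL for a dose-response curve. Viability read with a Cell Titer 96 aqueous kit by absorbance at 450 nm. Paclitaxel reference. Triplicates in three independent experiments; IC50 by regression analysis.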

Drawing on PMC7475184 (Heliyon, 2020), this text covers IC50 for one compound.

Molecules are shown by their SMILES. In brackets after ≈: the same amount, converted by molar mass.

One may read the IC50 as the concentration that inhibits the measured activity by half. As to `CC(=O)O[C@H]1C(=O)[C@@]2(C)[C@H]([C@H](OC(=O)c3ccccc3)[C@]3(O)C[C@H](OC(=O)[C@H](O)[C@@H](NC(=O)c4ccccc4)c4ccccc4)C(C)=C1C3(C)C)[C@]1(OC(C)=O)CO[C@@H]1C[C@@H]2O` [Paclitaxel, reference compound], the IC50 came to 4.27 ng/mL (≈ 5 nM).
